This assay addresses T1, NLRP6-APEX2 fusion protein (human) (UniProt P59044).
T1 sequence: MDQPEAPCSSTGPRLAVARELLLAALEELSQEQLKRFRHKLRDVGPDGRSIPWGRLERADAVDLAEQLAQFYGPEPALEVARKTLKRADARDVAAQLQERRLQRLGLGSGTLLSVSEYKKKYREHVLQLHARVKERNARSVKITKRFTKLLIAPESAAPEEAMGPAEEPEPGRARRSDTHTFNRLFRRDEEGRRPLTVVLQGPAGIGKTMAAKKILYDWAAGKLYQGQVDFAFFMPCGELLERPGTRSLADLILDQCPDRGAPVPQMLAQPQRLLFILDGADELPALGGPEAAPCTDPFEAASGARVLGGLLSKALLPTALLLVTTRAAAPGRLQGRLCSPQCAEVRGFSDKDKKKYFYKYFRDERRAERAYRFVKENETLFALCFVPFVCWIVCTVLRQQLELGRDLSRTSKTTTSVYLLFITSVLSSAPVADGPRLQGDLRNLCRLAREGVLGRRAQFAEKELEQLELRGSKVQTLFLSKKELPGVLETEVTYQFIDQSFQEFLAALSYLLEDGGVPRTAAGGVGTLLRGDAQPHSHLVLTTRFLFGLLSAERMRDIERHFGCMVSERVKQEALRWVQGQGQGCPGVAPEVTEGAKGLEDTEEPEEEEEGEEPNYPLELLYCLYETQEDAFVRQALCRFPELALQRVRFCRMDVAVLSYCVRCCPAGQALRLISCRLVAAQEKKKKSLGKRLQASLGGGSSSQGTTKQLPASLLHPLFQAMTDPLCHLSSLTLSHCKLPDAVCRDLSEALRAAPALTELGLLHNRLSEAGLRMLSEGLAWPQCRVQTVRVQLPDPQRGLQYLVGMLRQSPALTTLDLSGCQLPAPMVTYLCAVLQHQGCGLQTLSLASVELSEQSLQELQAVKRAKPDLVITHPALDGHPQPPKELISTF
Briefly: proximity labelling; NLRP6-APEX2 in living cells, biotin phenol 30 min, 2 mM hydrogen peroxide 1 min, streptavidin beads, LC-MS/MS.

Protein sequences, listed by entry. Tags and fused reporters are not part of them.
UniProt P27986: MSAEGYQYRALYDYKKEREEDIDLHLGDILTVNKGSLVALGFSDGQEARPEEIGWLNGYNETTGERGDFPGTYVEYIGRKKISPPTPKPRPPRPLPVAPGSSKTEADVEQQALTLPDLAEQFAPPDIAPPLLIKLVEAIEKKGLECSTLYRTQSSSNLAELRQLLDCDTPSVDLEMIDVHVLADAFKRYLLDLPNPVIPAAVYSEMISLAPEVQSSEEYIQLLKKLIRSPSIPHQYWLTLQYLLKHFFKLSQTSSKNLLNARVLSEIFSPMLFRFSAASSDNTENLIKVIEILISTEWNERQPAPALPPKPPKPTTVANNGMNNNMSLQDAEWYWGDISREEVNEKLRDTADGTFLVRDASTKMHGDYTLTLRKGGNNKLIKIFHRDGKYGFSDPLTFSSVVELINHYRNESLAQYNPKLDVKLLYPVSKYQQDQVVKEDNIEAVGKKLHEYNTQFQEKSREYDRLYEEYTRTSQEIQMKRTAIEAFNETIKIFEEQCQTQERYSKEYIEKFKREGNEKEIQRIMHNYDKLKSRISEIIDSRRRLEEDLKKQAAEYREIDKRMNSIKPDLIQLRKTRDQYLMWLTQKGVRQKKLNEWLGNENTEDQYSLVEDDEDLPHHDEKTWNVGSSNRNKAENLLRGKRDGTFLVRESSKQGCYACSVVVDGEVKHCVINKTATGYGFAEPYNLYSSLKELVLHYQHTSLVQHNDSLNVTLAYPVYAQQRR

These are yes or no findings as the source states them, for the method shown. Binding seen in cells or lysates may run through a third protein. Here binding means that the protein was enriched with, or labelled near, the bait; the list need not be complete. Where a sequence is shown, tags or fusion partners need not be part of it.

Turning to “endogenous p85α (from UniProt P27986 1-724)”, the binding result is given as “binds”.

These data come from article PMC10539329, “NLRP6 potentiates PI3K/AKT signalling by promoting autophagic degradation of p85α to drive tumorigenesis” (Nature Communications, 2023).
